These are yes or no findings as the source states them, for the method shown. Some results given as binding are weak or reduced against the parent protein; the word gives no strength.
T1: Alcohol dehydrogenase (UniProt P00330)
T1 sequence: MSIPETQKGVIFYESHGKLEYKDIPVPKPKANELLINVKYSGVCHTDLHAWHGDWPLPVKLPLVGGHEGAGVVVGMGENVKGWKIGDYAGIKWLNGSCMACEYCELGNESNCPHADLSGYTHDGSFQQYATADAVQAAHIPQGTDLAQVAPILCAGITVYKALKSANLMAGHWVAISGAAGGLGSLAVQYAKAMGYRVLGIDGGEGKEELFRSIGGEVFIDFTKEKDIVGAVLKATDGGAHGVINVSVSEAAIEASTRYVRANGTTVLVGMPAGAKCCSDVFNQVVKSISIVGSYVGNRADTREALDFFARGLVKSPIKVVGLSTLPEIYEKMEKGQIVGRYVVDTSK


Key:
Lysozyme [1] = target: Lysozyme (UniProt P00698); experiment: co-sedimentation; after the 6-hour lysozyme (10 μM) aggregation assay in PBS, 2 mM DTT, 37°C; 6,000 rpm 20 min; supernatant and pellet on SDS-PAGE; both purified
Alcohol dehydrogenase = target: T1, Alcohol dehydrogenase; experiment: SEC-MALS; chaperone (100 μg) with ADH (75 μg) in 0.25 mL PBS, 50 mM EDTA, 37°C, 60 min; supernatant on TSK G5000PWXL with MALS; compared with samples without incubation (0 min); both purified
Lysozyme [2] = target: Lysozyme (UniProt P00698); experiment: dynamic light scattering; 10 μM lysozyme with 10 μM chaperone (1:1) in 1 ml PBS, 2 mM DTT, 37°C; effective radius and mass at 0 and 6 hr (Nanobrook Omni); both purified

Row | Binder | binding (Lysozyme [1]) | binding (Alcohol dehydrogenase) | binding (Lysozyme [2])
1 | wild-type αB-crystallin (protein, UniProt P02511 1-175) MDIAIHHPWIRRPFFPFHSPSRLFDQFFGEHLLESDLFPTSTSLSPFYLRPPSFLRAPSWFDTGLSEMRLEKDRFSVNLDVKHFSPEELKVKVLGDVIEVHGKHEERQDEHGFISREFHRKYRIPADVDPLTITSSLSSDGVLTVNGPRKQVSGPERTIPITREEKPAVTAAPKK | binds | binds | binds
2 | αB-crystallin S59A (protein, UniProt P02511 1-175) MDIAIHHPWIRRPFFPFHSPSRLFDQFFGEHLLESDLFPTSTSLSPFYLRPPSFLRAPAWFDTGLSEMRLEKDRFSVNLDVKHFSPEELKVKVLGDVIEVHGKHEERQDEHGFISREFHRKYRIPADVDPLTITSSLSSDGVLTVNGPRKQVSGPERTIPITREEKPAVTAAPKK | binds | binds | binds

Results, then the binder that gave them:

Row | binding (Lysozyme [1]) | binding (Alcohol dehydrogenase) | binding (Lysozyme [2]) | Binder
3 | binds | binds | binds | αB-crystallin S59D (phosphomimetic mutant) (protein, UniProt P02511 1-175) MDIAIHHPWIRRPFFPFHSPSRLFDQFFGEHLLESDLFPTSTSLSPFYLRPPSFLRAPDWFDTGLSEMRLEKDRFSVNLDVKHFSPEELKVKVLGDVIEVHGKHEERQDEHGFISREFHRKYRIPADVDPLTITSSLSSDGVLTVNGPRKQVSGPERTIPITREEKPAVTAAPKK
4 | binds | binds | binds | αB-crystallin ΔS59 (deletion of Serine 59) (protein, UniProt P02511 1-175) MDIAIHHPWIRRPFFPFHSPSRLFDQFFGEHLLESDLFPTSTSLSPFYLRPPSFLRAPWFDTGLSEMRLEKDRFSVNLDVKHFSPEELKVKVLGDVIEVHGKHEERQDEHGFISREFHRKYRIPADVDPLTITSSLSSDGVLTVNGPRKQVSGPERTIPITREEKPAVTAAPKK
5 | binds | binds | binds | αB-crystallin with residues 54–61 deleted (protein, UniProt P02511) MDIAIHHPWIRRPFFPFHSPSRLFDQFFGEHLLESDLFPTSTSLSPFYLRPPSDTGLSEMRLEKDRFSVNLDVKHFSPEELKVKVLGDVIEVHGKHEERQDEHGFISREFHRKYRIPADVDPLTITSSLSSDGVLTVNGPRKQVSGPERTIPITREEKPAVTAAPKK
